Assay [1] concerns the target activator of HSP90 ATPase activity 1 (AHA1) (human (endogenous in human cell lines; line not named for the co-IP)) (UniProt O95433). As to the kind of experiment: co-IP; endogenous proteins; cleared cell lysates (1% Nonidet P-40, 150 mM NaCl, 100 mM HEPES) incubated with Protein G- or Protein A-Sepharose and the appropriate antibody (anti-AHA1 or anti-IDH1; control IgG) overnight at 4 °C; washed three times; western blot.

Amino acid sequences for entries named in this document (tags omitted).
UniProt O75874: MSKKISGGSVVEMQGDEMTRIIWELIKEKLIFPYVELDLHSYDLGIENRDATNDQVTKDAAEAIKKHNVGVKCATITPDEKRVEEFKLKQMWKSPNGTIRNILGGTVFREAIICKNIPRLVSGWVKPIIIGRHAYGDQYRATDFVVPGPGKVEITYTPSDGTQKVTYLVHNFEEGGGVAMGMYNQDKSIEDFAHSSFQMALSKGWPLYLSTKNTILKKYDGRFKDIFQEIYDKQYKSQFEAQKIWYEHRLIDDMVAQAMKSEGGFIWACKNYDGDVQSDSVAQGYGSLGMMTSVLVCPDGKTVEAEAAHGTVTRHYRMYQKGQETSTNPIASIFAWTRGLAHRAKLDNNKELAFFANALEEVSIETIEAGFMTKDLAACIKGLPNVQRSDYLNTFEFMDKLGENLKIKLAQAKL

The target in assay [2] is isocitrate dehydrogenase 1 (IDH1) (human (endogenous in human cell lines; line not named for the co-IP)) (UniProt O75874). The description is as above.

These are yes or no findings as the source states them, for the method shown. Binding seen in cells or lysates may run through a third protein. Some entries that bind do so weakly or less than the wild type.

With “Heat-shock protein 90 alpha (Hsp90α) (from UniProt P07900 1-732)”, in assay [1], the binding result is given as “binds”.

Regarding “activator of HSP90 ATPase activity 1 (AHA1) (from UniProt O95433 1-338)”, the binding entry in assay [2] is on record as “binds”. In the case of “isocitrate dehydrogenase 1 (IDH1) (from UniProt O75874 1-414) (enzyme)”, the binding entry in assay [1] is on record as “binds”.
